Among all 330,000 compounds or so, about 1,000 (0.3%) were called active. The shares of active, inactive and inconclusive entries below differ from those in the screen. Calls come from the whole dose curve; as a rule, active = well fitted inhibition curve with a large enough effect; inconclusive = small, poorly fitted or top-dose-only effect; inactive = no such curve, though single readings can be large or run the other way; tested in mouse RAW 264.7 cells. Where the call is inconclusive, the potency comes from a doubtful curve fit.
Experiment: qHTS for Inhibitors of Cell Surface uPA Generation; note: nearly all actives have a fitted effect of over 55% in size
Settings: cell surface uPA generation assay; series mostly up to 38.3 µM
Summary of the method: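 Murine RAW 264.7 cells are treated for 24 h with compound up to 38.3 uM final. Cell ATP, measured by ATP-Lite, remains high if blocking the uPA cascade prevents LF from reaching the cytoplasm.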
Potency is the fitted concentration of half-maximal effect.

| SMILES | Potency |
| --- | --- |
| Cc1cccc(C(C)C)c1NC(=O)CN(C)Cc1cccc(F)c1 | inconclusive: 8.91 µM [inhibitor, partial curve] |
| Cc1nc2cc(-n3ccc(=O)cc3)ccc2n1-c1ccccc1 | inconclusive: 3.98 µM [inhibitor, partial curve, poor fit] |
| Cc1csc(NC(=O)c2nc3nc(C)cc(C)n3n2)n1 | inactive |
| CN1c2ccc([N+](=O)[O-])cc2C(C)(C)C12C=Cc1cc(C(=O)O)ccc1O2 (configuration not stated) | inconclusive: 3.55 µM [inhibitor, partial curve, poor fit] |
| O=C(COC(=O)c1ccc[nH]c1=O)Nc1ccc(N2CCCCC2)cc1 | inconclusive: 12.6 µM [inhibitor, partial curve, poor fit] |
| CCCOc1ccccc1NC(=O)c1c(-c2ccccc2)noc1C | inconclusive: 8.91 µM [inhibitor, partial curve, poor fit] |
| Cc1nonc1C(=O)N/N=C/c1ccc([N+](=O)[O-])o1 | inconclusive: 12.6 µM [inhibitor, partial curve, poor fit] |
| O=C(N/N=C/c1c[nH]c2ccccc12)C1COc2ccccc2O1 (configuration not stated) | inconclusive: 4.47 µM [inhibitor, partial curve, poor fit] |
| Cc1noc(C(=O)Nc2cccnc2)c1Cl | inactive |
| CCCCN(C(=O)c1ccc([N+](=O)[O-])o1)c1c(N)n(CCCC)c(=O)[nH]c1=O | inconclusive: 5.62 µM [inhibitor, single point] |
| O=S(=O)(c1cccs1)N1CCCc2cccc(O)c21 | inactive |
| CCOC(=O)C1=C(C)NC(=S)NC1c1ccc(OC(=O)c2ccco2)cc1 (configuration not stated) | inactive |
| CCOC(=O)CCSc1nc(C)c2cc(C)ccc2n1 | inactive |
| Cc1nc(-c2ccccc2)sc1-c1ccn[nH]1 | inconclusive: 11.2 µM [inhibitor, partial curve, poor fit] |
| CC1=C(C(=O)Nc2ccc(F)cc2)C(c2ccc(C)o2)C2=C(CC(C)(C)CC2=O)N1 (configuration not stated) | inactive |
| Cc1cc(C(=O)NCc2ccc(Cl)cc2)n(-c2ccccc2)n1 | inconclusive: 1.12 µM [inhibitor, partial curve, poor fit] |
| CCOC(=O)C(CN1CCCC1)c1ccccc1 (configuration not stated) | inactive |
| N/C(=N\OC(=O)c1ccc(Cl)cc1Cl)c1cccnc1 | inconclusive: 5.62 µM [inhibitor, partial curve, poor fit] |
| COc1ccc(C)cc1NC(=O)C(c1ccccc1)N1CCN(CC(=O)N2CCOCC2)CC1 (configuration not stated) | inactive |
| CCc1ccc(CNC(=O)CCCn2nc(C)n3ccnc3c2=O)cc1 | inconclusive: 12.6 µM [inhibitor, single point] |
| CCOC(=O)c1c(C)[nH]c(C)c1S(=O)(=O)NCC1CCN(Cc2cccc(F)c2)CC1 | inconclusive: 2.24 µM [inhibitor, partial curve, poor fit] |
| Brc1ccccc1-n1nnc(-c2nccs2)n1 | inconclusive: 3.16 µM [inhibitor, partial curve, poor fit] |
| CSc1sc(C)cc1C1C(C#N)=C(N)N(c2cccnc2)C2=C1C(=O)CCC2 (configuration not stated) | inconclusive: 0.447 µM [inhibitor, full curve] |

| SMILES | Potency |
| --- | --- |
| CC/C(Cc1ccccc1)=N/NC(=O)c1cccc(Br)c1 | inactive |
| Cc1nc2c(-c3ccc(F)cc3)c(C)nn2c(C)c1CCC(=O)NC(C)CCc1ccco1 (configuration not stated) | inconclusive: 12.6 µM [inhibitor, single point] |
| CC(Oc1ccc2c(c1)c1ccnc3c4ccccc4c(=O)n2c13)C(=O)NCCN1CCOCC1 (configuration not stated) | inconclusive: 22.4 µM [inhibitor, single point] |
| O=C(Oc1c(CN2CCOCC2)cc(Cl)c2cccnc12)c1ccccc1Br | inconclusive: 12.6 µM [inhibitor, single point] |
| CN1C[C@@H]2[C@@H]3C(=O)N(Cc4ccccc4)C(=O)[C@@H]3[C@](Cc3ccccc3)(C1=O)N2C(=O)c1ccc(C(C)(C)C)cc1 | inconclusive: 7.08 µM [inhibitor, partial curve, poor fit] |
| COc1ccc(CNC(=O)CCc2ccc(S(=O)(=O)N3CCCCCC3)cc2)cc1 | inconclusive: 1.26 µM [inhibitor, full curve, poor fit] |
| COc1ccc(N(C)S(=O)(=O)c2cccc(C(=O)OCC(=O)N(C)c3ccccc3)c2)cc1 | inconclusive: 3.16 µM [inhibitor, partial curve, poor fit] |
| CCN(CC(=O)Nc1ccc(NC(C)=O)cc1)C(=O)c1ccc(COc2ccc(C(C)(C)C)cc2)cc1 | inconclusive: 14.1 µM [inhibitor, single point] |
| CCN1CCN(CCc2nc3cc(NC(=O)COc4ccc(Cl)cc4)ccc3n2C)CC1 | inconclusive: 4.47 µM [inhibitor, partial curve, poor fit] |
| CCc1occc(=O)c1Oc1cc(NN2CCCCC2)c([N+](=O)[O-])cc1[N+](=O)[O-] | inactive |
| O=C(CCl)N1CCN(S(=O)(=O)Cc2ccccc2)CC1 | inconclusive: 15.8 µM [inhibitor, partial curve, poor fit] |
| CN(Cc1ccccc1)C(=O)c1ccccc1C(=O)OCC(=O)N(Cc1ccccc1)C(C)(C)C | inconclusive: 0.891 µM [inhibitor, full curve, poor fit] |
| CCOc1ccc(Oc2ccccc2NS(=O)(=O)c2ccc(CCC(=O)O)cc2)cc1 | inconclusive: 12.6 µM [inhibitor, single point] |
| COc1cc(/C=C/C(=O)OCC(=O)NCc2ccco2)ccc1OC(F)F | inconclusive: 8.91 µM [inhibitor, partial curve, poor fit] |
| Cc1ccc(Cl)cc1NC(=S)N(CCN(C)C)C(C)c1ccccn1 (configuration not stated) | inactive |
| COC(=O)c1nc(NNC(=O)c2ccccc2)sc1-c1ccccc1 | inactive |
| CN(C)C(=O)CSc1nnc(-c2cccnc2)n1-c1ccccc1 | inactive |
| CCCCC[C@@H](/C=C/C1C(=O)C=C[C@H]1C/C=C\CCCC(=O)OC)OC(C)=O (some centres not stated) | inconclusive: 10 µM [inhibitor, single point] |
| COc1cccc(C(=O)Nc2cccc(-c3ccc(N4CCOCC4)nn3)c2)c1 | active: 10 µM |
| COc1ccccc1N(C)S(=O)(=O)c1ccc(C)c(C(=O)N2CCCCCC2)c1 | inactive |
| CCS(=O)(=O)N1CCC(C(=O)Nc2cc(C)ccc2O)CC1 | inconclusive: 11.2 µM [inhibitor, partial curve] |
| COc1ccc(CCN(C)C/C=C/c2ccccc2)cc1OC | inconclusive: 0.01 µM [inhibitor, full curve, poor fit] |
| CCOc1ccc(C(=O)Nc2cccc(C(C)=O)c2)cc1[N+](=O)[O-] | inactive |

Part of the list above, set out differently:
SMILES	Potency
Cc1nc2c(-c3ccc(F)cc3)c(C)nn2c(C)c1CCC(=O)NC(C)CCc1ccco1 (configuration not stated)	inconclusive: 12.6 µM [inhibitor, single point]
CC(Oc1ccc2c(c1)c1ccnc3c4ccccc4c(=O)n2c13)C(=O)NCCN1CCOCC1 (configuration not stated)	inconclusive: 22.4 µM [inhibitor, single point]

More results.

| SMILES | Potency |
| --- | --- |
| CCC(=O)c1ccc(OCC(=O)Nc2nc(-c3cccnc3)cs2)cc1 | inactive |
| COc1ccc(CN(C)C(C)C(=O)Nc2ccc(S(=O)(=O)N3CCCCC3)cc2)c(OC)c1 (configuration not stated) | inconclusive: 0.501 µM [inhibitor, partial curve, poor fit] |
| O=C(OCc1nc2ccccc2s1)c1ccco1 | inactive |
| COc1ccc(-c2cn3ccc(C)cc3n2)cc1 | active: 1 µM |
| O=C(c1ccc(Cl)c(Cl)c1)N1CCC(=O)N(C(COCc2ccc(Cl)cc2)Cc2ccccc2)CC1 (configuration not stated) | inconclusive: 12.6 µM [inhibitor, single point] |
| CC(=O)N1N=C(c2cccs2)CC1c1ccc(Br)cc1 (configuration not stated) | inconclusive: 12.6 µM [inhibitor, single point] |
| Cc1ccccc1NC(=O)c1c(-c2ccccc2)noc1C | inactive |
| COc1cccc(/C=N/Nc2nc(-c3cccnc3)nc3ccccc23)c1 | inconclusive: 11.2 µM [inhibitor, partial curve, poor fit] |
| CC(C)Oc1ccc(Cl)cc1Nc1nc(NCCO)nc(N2CCCC2)n1 | inconclusive: 10 µM [inhibitor, single point] |
| O=C(COc1ccc(S(=O)(=O)N2CCOCC2)cc1Cl)NCCCn1ccnc1 | inactive |
| CCn1cc(C(=O)NCCCN2CC(C)CC(C)C2)c(=O)c2cc(S(=O)(=O)N(C)C)ccc21 (configuration not stated) | inconclusive: 31.6 µM [inhibitor, partial curve, poor fit] |
| O=C(Nc1cccc2oc(=O)ccc12)c1ccc([N+](=O)[O-])cc1[N+](=O)[O-] | inconclusive: 14.1 µM [inhibitor, single point] |
| Cc1ccc(N(CC(=O)N2CCN(Cc3ccccc3)CC2)S(C)(=O)=O)cc1C | inactive |
| CC(=O)c1ccc(Nc2c3c(nc4ccccc24)CCCC3)cc1 | inconclusive: 5.62 µM [inhibitor, partial curve, poor fit] |
| N#CC1=C(SCC(=O)Nc2ccc(C(=O)O)cc2)NC(=O)CC1c1ccco1 (configuration not stated) | inconclusive: 5.62 µM [inhibitor, partial curve, poor fit] |
| CCOC(=O)N1CCC(c2cc(=O)n3[nH]c(C)c(-c4ccc(F)cc4)c3n2)CC1 | inconclusive: 28.2 µM [inhibitor, single point] |
| CCOC(=O)Nc1ccc2nc(Sc3ccc(Cl)cc3)sc2c1 | active: 1.58 µM |
| Cc1ccc(C(NC(=O)N2CCOCC2)=C(Cl)Cl)cc1F | inconclusive: 5.01 µM [inhibitor, partial curve, poor fit] |
| COc1ccc(NC(=S)N(Cc2ccc(C(=O)O)cc2)Cc2ccc(OC)c(OC)c2)cc1 | inactive |
| COc1cccc(N2CCN(S(=O)(=O)c3cc4c(cc3C)N(C)CCO4)CC2)c1 | inactive |
| CCN1/C(=C/C=C/c2oc3ccc4ccccc4c3[n+]2CC)Oc2ccc3ccccc3c21 | inactive |

In the list so far, three have a thiophene ring, fused or not.

| SMILES | Potency |
| --- | --- |
| O=S(=O)(c1cccs1)N1CCCc2cccc(O)c21 | inactive |
| CSc1sc(C)cc1C1C(C#N)=C(N)N(c2cccnc2)C2=C1C(=O)CCC2 (configuration not stated) | inconclusive: 0.447 µM [inhibitor, full curve] |
| CC(=O)N1N=C(c2cccs2)CC1c1ccc(Br)cc1 (configuration not stated) | inconclusive: 12.6 µM [inhibitor, single point] |

Source: PubChem BioAssay AID540303 (National Center for Advancing Translational Sciences (NCATS), 2011)
